## Results of single-concentration screens

A: 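Growth of Mycobacterium tuberculosis over 4 days (cholesterol / DPPC medium with tyloxapol); the read-out is not stated. Tested at 50 µM. Higher reads as more growth inhibition (inferred: compounds with an IC50 in retests scored well above the rest). Size under these conditions: about 69,000 compounds, about 370 of them at 50% or above in at least one test.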
B: 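Whole-cell growth test on Mycobacterium tuberculosis, read after 3 days in glucose-containing 7H9 medium; the read-out is not stated. Concentration: 50 µM. Direction is inferred from retests: higher values go with more growth inhibition. Of about 69,000 compounds tested this way, about 760 (1.1%) reached 50% or more in at least one test.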

Results are given as percent effect. How 0% and 100% were set is not recorded. Most values in the screen are low, and negative values occur. The compounds are a random part of those screened. Two or more numbers in one place are separate tests of the same structure; such repeats can differ widely.

With [H][C@@]12OCCC[C@]1([H])N(C(=O)c1cccc(C)n1)C[C@@H]2NS(C)(=O)=O the screen gave A: -27.88%; B: -0.7642%.
With CCC(CC)CN1CCN(CC(=O)Nc2ccc3nsnc3c2)CC1 the screen gave A: 15.59%; B: -0.602% & 6.056%.
With c1cnc(CC2COCCN(C3CCCCC3)C2)cn1 (centres unmarked) the screen gave A: -0.6955% & 0.1898%; B: -12.53%.
With CCC(=O)c1ccc(OCC(=O)N2CCNCC2C(=O)NC2CC2)cc1 (centres unmarked) the screen gave A: -12.67%; B: 5.526%.
With Cc1sc(C(=O)N(C)S(C)(=O)=O)cc1-c1ccc(F)cc1 the screen gave A: 10.55%; B: -11.33%.
With CC(C)(C)NC(=O)CN1CCCN(Cc2ccc(C#N)cc2)CC1 the screen gave A: -8.676% & -0.2628%; B: -0.4645%.
With CCOCCN1CCN(Cc2nnc(C3CC3)o2)CC1 the screen gave A: 17.17%; B: -18.23% & -3.914%.
With Cc1cnn(CCNCC(O)COc2ccc(C#N)cc2)c1 (centres unmarked) the screen gave A: 15.22%; B: 13.65%.
With O=C(c1cccnc1O)N1CCCC2(C=Cc3ccccc3O2)CC1 (centres unmarked) the screen gave A: -15.05% & -4.159%; B: -21.2%.
With Cl.NCc1ccc(Oc2ccc(F)c(F)c2)cc1C(F)(F)F the screen gave A: 20.81%; B: 20.65%.
With Cc1nc(C(F)(F)F)nc(N2CCC3(CC2)CC(C(=O)O)N(C)C3)c1C (centres unmarked) the screen gave A: -0.2843%; B: 6.246%.
With O=C(NCCc1nc(-c2cccnc2)no1)c1ccc(C2CCCO2)s1 (centres unmarked) the screen gave A: -19.57%; B: -36.49%.
With Cc1nn(C)c2c(N3CCSCC3)nc(C3CC3)nc12 the screen gave A: 15.44%; B: 17.59% & 19.14%.
With Cn1cnc(S(=O)(=O)NCCCN2CCCC2)c1Cl the screen gave A: 2.829%; B: -3.533% & 1.664%.
With CC(C)(C)c1coc([C@@H]2COCCN2Cc2c[nH]c3ccccc23)n1 the screen gave A: 3.668%; B: 7.129% & -16.66%.
With Cc1cccc2c1nc(CCO)n2-c1ccc(C(=O)N2CCCC2)o1 the screen gave A: 2.801%; B: -2.678%.
With COc1ccc(C(=O)C2CCCN(CCc3ccccc3)C2)c(OC)c1 (centres unmarked) the screen gave A: 28.09%; B: 37.91%.
With CC(NC(=O)N1CCN(c2ccc(Cl)cc2)CC1)C(=O)N1CCSCC1 (centres unmarked) the screen gave A: -20.97%; B: -25.64%.
With CC(C)c1ncc2c(n1)CN(Cc1cccc(C(N)=O)c1)CC2 the screen gave A: 10.67%; B: 1.831% & -43.89%.
With O=C(O)C(F)(F)F.[H][C@@]12CCN(c3nncs3)C[C@@]1([H])O[C@@H](C(=O)NCCOC)C2 the screen gave A: -7.682% & -2.114%; B: 13.02%.
With Cc1noc(C)c1CC(=O)N1CCCN(C)c2ccc(Cl)cc21 the screen gave A: -5.74%; B: -7.766%.
With CCCc1nc(NCCCO)c2c(n1)c(C)nn2CC the screen gave A: -1.733%; B: -19.5%.
With CN1CCNC(Cc2ccc(-c3ccccc3)cc2)C1=O (centres unmarked) the screen gave A: -14.8%; B: 14.47%.
With O=C(Cc1cccs1)NCC1COCc2c(-c3ccoc3)nnn2C1 (centres unmarked) the screen gave A: 13.34%; B: -6.234% & -0.8366%.
With O=C(CN1CCC(OCC2CCCO2)CC1)NCC(F)(F)F (centres unmarked) the screen gave A: 2.059%; B: -9.573%.
With COCCN(C)C[C@@H]1CN(c2cc(C)nc3ccccc23)C[C@@H]1CO the screen gave A: -7.232%; B: 8.031%.
With CN(Cc1cnn(C)c1)C(=O)Cc1ccc2c(c1)OCCO2 the screen gave A: -3.56%; B: -16.43%.
With CCc1n[nH]c(C2CN(C(=O)CCCn3cccn3)CCO2)n1 (centres unmarked) the screen gave A: 0.8314%; B: -10.04%.
With CC(C(=O)N1CCOCC1)n1cc(Br)cn1 (centres unmarked) the screen gave A: -2.664%; B: -15.57%.
With O=C(O)c1cnc2c(Br)cccc2c1O the screen gave A: -22.7%; B: -2.011%.
With [H][C@@]12CCN(C(=O)c3ccncn3)C[C@@]1([H])O[C@@H](C)C2 the screen gave A: -12.88% & 2.256%; B: -4.527%.
With Cc1ccnn1-c1ccc(C(=O)N2CCN(c3cnccn3)CC2)cc1 the screen gave A: -10.99%; B: 0.3872% & -2.206%.
With O=C(C1CCCOC1)N1CCCCc2ccccc21 (centres unmarked) the screen gave A: 3.783%; B: 1.558% & 23.61%.

The first 4 entries again:

compound	A	B
[H][C@@]12OCCC[C@]1([H])N(C(=O)c1cccc(C)n1)C[C@@H]2NS(C)(=O)=O	-27.88	-0.7642
CCC(CC)CN1CCN(CC(=O)Nc2ccc3nsnc3c2)CC1	15.59	-0.602 & 6.056
c1cnc(CC2COCCN(C3CCCCC3)C2)cn1 (centres unmarked)	-0.6955 & 0.1898	-12.53
CCC(=O)c1ccc(OCC(=O)N2CCNCC2C(=O)NC2CC2)cc1 (centres unmarked)	-12.67	5.526

Source: ChEMBL document CHEMBL3988442, “University of Dundee, Small-Polar-MMV Screening Library” (2021).